Assay results published in article doi:10.1101/2023.07.10.547766.
Where two headings read alike, the source gives them in different places. These are yes or no findings as the source states them, for the method shown. Some entries that bind do so weakly or less than the wild type. Where a sequence is shown, tags or fusion partners need not be part of it.

T1: ShcD-CH2 domain (amino acid 1-179) fused to LexA DNA binding domain (human) (UniProt Q6S5L8)
T1 sequence: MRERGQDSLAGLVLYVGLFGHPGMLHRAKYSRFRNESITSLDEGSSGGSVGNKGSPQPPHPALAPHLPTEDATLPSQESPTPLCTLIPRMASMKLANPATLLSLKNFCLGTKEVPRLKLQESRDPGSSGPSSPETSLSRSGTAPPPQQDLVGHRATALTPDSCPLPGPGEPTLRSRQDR


Tests used:
[1] = target: T1, ShcD-CH2 domain (amino acid 1-179) fused to LexA DNA binding domain (human); test: two-hybrid
[2] = target: T1, ShcD-CH2 domain (amino acid 1-179) fused to LexA DNA binding domain (human); test: two-hybrid; remark: listed apart in the source

| binding [1] | binding [2] | Binder |
| --- | --- | --- |
| no binding | – | LPAWIEAANQREEAHGEQGEEEEEEEEEEDVAENRYFEMGPPDAEEE (domain or fragment, UniProt Q80TM9 620-666) [Nisch 2 (coiled-coil domain of Nischarin encoded by 6.1C, 620-666)] |
| binds | binds | Nischarin clone 66.1C (amino acids 559-741) (domain or fragment, UniProt Q80TM9 559-741) LRDVPGAVGGVSPDHAEPEVQVVPGSGQIIFLPFTCIGYTATNQDFIQRLSTLIRQAIERQLPAWIEAANQREEAHGEQGEEEEEEEEEEDVAENRYFEMGPPDAEEEEGSGQGEEDEEDEDEEAEEERLALEWALGADEDFLLEHIRILKVLWCFLIHVQGSIRQFAACLVLTDFGIAVFEI |
| binds | binds | Nischarin clone 6.1C (amino acids 541-666) (domain or fragment, UniProt Q80TM9 541-666) ACSDSLESIPAGQVASDDLRDVPGAVGGVSPDHAEPEVQVVPGSGQIIFLPFTCIGYTATNQDFIQRLSTLIRQAIERQLPAWIEAANQREEAHGEQGEEEEEEEEEEDVAENRYFEMGPPDAEEE |
| no binding | – | Nisch 1 (complete coiled-coil domain of Nischarin, amino acids 620-694) (domain or fragment, UniProt Q80TM9 620-694) LPAWIEAANQREEAHGEQGEEEEEEEEEEDVAENRYFEMGPPDAEEEEGSGQGEEDEEDEDEEAEEERLALEWAL |
